Measurements: the supplement of paper PMC7125110
± gives the standard error. The uncertainty is large for many entries.

B1: glmS ribozyme (parent)
chain: AUAAAAGCGCCAGAACUACAGAAAUGUAGUUGACGAGGAGGAGGUUUAUCGAAUUUUCGGCGGAUGCCUCCAAA

Variants of: B1
Assay: self-cleavage kobs at 2500 uM GlcN6P; higher = faster cleavage; RNA array
Conditions: with glucosamine-6-phosphate
Method in brief: (§1)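 Barcoded ribozyme variants on sequenced MiSeq chips were transcribed in situ by E. coli RNA polymerase and followed at 37 °C through a hybridised Cy3 probe. Glucosamine-6-phosphate at 40 μM to 10 mM in HEPES/KCl/Mg(OAc)2 buffer was flowed in, and tiles were imaged over ~14 h. Signals were normalised to baseline and to non-cleaving reference variants, and per-tile medians were fit to one- or two-exponential decays to give kobs. Weighted Michaelis–Menten fits across concentrations gave kcat and KM.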

| Variant | self-cleavage kobs at 2500 uM GlcN6P |
| --- | --- |
| A36U U65C C70G | 3.21e-05 ± 2.7e-05 s⁻¹ |
| G32U U57C | 2.15e-05 ± 1.2e-05 s⁻¹ |
| C34U C61A C67G | 2.26e-05 ± 2e-05 s⁻¹ |
| A36U C70G | 0.000271 ± 0.0002 s⁻¹ |
| G51A A52G G66A C70G | 4.24e-05 ± 2.6e-05 s⁻¹ |
| G38U A64U C70G | 4.9e-05 ± 2.9e-05 s⁻¹ |
| U47G G63U C68G | 3.48e-05 ± 2.7e-05 s⁻¹ |
| U55C U69A | 3.47e-05 ± 2.3e-05 s⁻¹ |
| C61A C68U C71G | 7.58e-05 ± 4.6e-05 s⁻¹ |
| U46A G66U C67G | 4.18e-05 ± 2.9e-05 s⁻¹ |
| A52C C67G | 2.67e-05 ± 1.5e-05 s⁻¹ |
| G44A U65G | 2.79e-05 ± 1.9e-05 s⁻¹ |
| A36G A53G | 1.57e-05 ± 1.4e-05 s⁻¹ |
| G32U A39C U54A | 3.06e-05 ± 2.8e-05 s⁻¹ |
| C50G A52U C70U | 2.66e-05 ± 2e-05 s⁻¹ |
| A64C C70A | 2.93e-05 ± 2.7e-05 s⁻¹ |
| A42U U65G C68A | 3.9e-05 ± 2.4e-05 s⁻¹ |
| G44U C68U | 1.85e-05 ± 1.1e-05 s⁻¹ |
| A48U G59C G66C C71A | 2.6e-05 ± 2.6e-05 s⁻¹ |
| G66C C67U | 1.77e-05 ± 1.1e-05 s⁻¹ |
| G60A C71U | 2.07e-05 ± 1.1e-05 s⁻¹ |
| C34U C50G A52G G60A | 3.29e-05 ± 3.2e-05 s⁻¹ |

| Variant | self-cleavage kobs at 2500 uM GlcN6P |
| --- | --- |
| A52C A64G | 2.32e-05 ± 1.9e-05 s⁻¹ |
| C50U G63U C67U C68U C70G | 3.69e-05 ± 2.8e-05 s⁻¹ |
| G41U U65C | 2.03e-05 ± 1e-05 s⁻¹ |
| A36U | < 1e-05 s⁻¹ |
| A53U C58G C68U | 2.57e-05 ± 1.5e-05 s⁻¹ |
| G32U A53U G63A C68G | 0.00174 ± 0.0015 s⁻¹ |
| G38U C70U | 1.58e-05 ± 1.5e-05 s⁻¹ |
| A52U C67A C70A | 3.93e-05 ± 2.6e-05 s⁻¹ |
| G37C C68U U69G | 3.29e-05 ± 2.6e-05 s⁻¹ |
| C34G C58U A64C C67G | 3.03e-05 ± 2.2e-05 s⁻¹ |
| G44A A64G | 1.67e-05 ± 1.6e-05 s⁻¹ |
| C50U G51U C68A C71A | 3.37e-05 ± 2.2e-05 s⁻¹ |
| A39C U55G C58A | 2.79e-05 ± 2.3e-05 s⁻¹ |
| A52G A53C U54A | 3.08e-05 ± 2.2e-05 s⁻¹ |
| G37U C71G | 1.99e-05 ± 1.4e-05 s⁻¹ |
| U56C U57G C58A | 2.91e-05 ± 2.6e-05 s⁻¹ |
| U49G G63C C70A | 3.01e-05 ± 2.2e-05 s⁻¹ |
| G32C U54A | 1.97e-05 ± 1.5e-05 s⁻¹ |
| A39G G66U C68A | 3.29e-05 ± 2.1e-05 s⁻¹ |
| G62A G63C C70A C71U | 2.39e-05 ± 1.7e-05 s⁻¹ |
| A48G C50G C61U | 4.61e-05 ± 3.5e-05 s⁻¹ |

Already shown: entries from further up.

| Variant | self-cleavage kobs at 2500 uM GlcN6P |
| --- | --- |
| A39C U55G C58A | 2.79e-05 ± 2.3e-05 s⁻¹ |
| A52G A53C U54A | 3.08e-05 ± 2.2e-05 s⁻¹ |

Variants of: B1
Assay: self-cleavage kobs at 10000 uM GlcN6P; higher = faster cleavage; RNA array
Conditions: with glucosamine-6-phosphate
Method in brief: as §1

| Variant | self-cleavage kobs at 10000 uM GlcN6P |
| --- | --- |
| G43C C68G | 0.0695 ± 0.037 s⁻¹ |
| C58A C68U U69G | 2.32e-05 ± 2e-05 s⁻¹ |
| C11A A14G A15G C70A | 4.51e-05 ± 2.3e-05 s⁻¹ |
| G9A U54G | 2.78e-05 ± 1.4e-05 s⁻¹ |
| A36U C70G | 0.000344 ± 0.00024 s⁻¹ |
| G9C C16U G32A C50G | 3.19e-05 ± 2.4e-05 s⁻¹ |
| G13U A52U | 1.46e-05 ± 8.1e-06 s⁻¹ |
| C10G G66U C68G C71A | 2.58e-05 ± 1.9e-05 s⁻¹ |
| C50G G51A U69G | 2.1e-05 ± 1.3e-05 s⁻¹ |
| G29U U31G C50G | 2.82e-05 ± 2.1e-05 s⁻¹ |
| U49G A52G C67G | 2.85e-05 ± 2.6e-05 s⁻¹ |
| G7U G59U C68A | 3.4e-05 ± 2.4e-05 s⁻¹ |
| U47G C58A G59A C70A | 3.07e-05 ± 1.8e-05 s⁻¹ |
| U55C U69A | 1.47e-05 ± 1e-05 s⁻¹ |
| G32C C70G C71G | 2.82e-05 ± 2.5e-05 s⁻¹ |
| A6G U54A C67G | 2.97e-05 ± 2.4e-05 s⁻¹ |
| G44A U65G | 2.39e-05 ± 1.8e-05 s⁻¹ |
| C11A C50G G59U C61G G62C | 4.26e-05 ± 2.3e-05 s⁻¹ |
| G32U A39C U54A | 3.42e-05 ± 2e-05 s⁻¹ |

| Variant | self-cleavage kobs at 10000 uM GlcN6P |
| --- | --- |
| C50G A52U C70U | 3.03e-05 ± 1.9e-05 s⁻¹ |
| U30A A33U C58G U69C | 4.27e-05 ± 2.1e-05 s⁻¹ |
| U47G C50A C67U | 2.15e-05 ± 1.8e-05 s⁻¹ |
| A6G C50G A53G C58U | 3.44e-05 ± 2.1e-05 s⁻¹ |
| A1U | 0.0729 ± 0.056 s⁻¹ |
| A42G G44U C67G | 0.0401 ± 0.02 s⁻¹ |
| A15G U49A | 1.19e-05 ± 1.1e-05 s⁻¹ |
| A42G U69C | 0.0629 ± 0.044 s⁻¹ |
| G32A U54A C68A | 2.76e-05 ± 2e-05 s⁻¹ |
| G32U C68G | 1.38e-05 ± 1.1e-05 s⁻¹ |
| G43U A53C | 1.28e-05 ± 1e-05 s⁻¹ |
| G13C C61A C67G C68G | 2.98e-05 ± 1.5e-05 s⁻¹ |
| C68U C71G | 1.07e-05 ± 8.7e-06 s⁻¹ |
| C50A C58U U69C C70A | 2.01e-05 ± 1.5e-05 s⁻¹ |
| A39C U56A U57A | 1.91e-05 ± 1.5e-05 s⁻¹ |
| G60A C71U | 1.86e-05 ± 1.2e-05 s⁻¹ |
| U55A C68A | 0.000872 ± 0.00052 s⁻¹ |
| U47C C50A | 2.57e-05 ± 2e-05 s⁻¹ |
| A20C | 0.0613 ± 0.035 s⁻¹ |

| Variant | self-cleavage kobs at 10000 uM GlcN6P |
| --- | --- |
| A14G C50A C68U | 2.2e-05 ± 2e-05 s⁻¹ |
| A33U G66U | 1.03e-05 ± 9.8e-06 s⁻¹ |
| C8A G29U C50U G51U C68G | 3.85e-05 ± 2e-05 s⁻¹ |
| C16A G29C C58U | 1.86e-05 ± 1.1e-05 s⁻¹ |
| U30A A42U U55C | 1.53e-05 ± 1.2e-05 s⁻¹ |
| U54A C67U C68A | 2.7e-05 ± 1.8e-05 s⁻¹ |
| G7U G9U C11G U31A C50A G51A C71G | 3.47e-05 ± 2.2e-05 s⁻¹ |
| G44A C67G C68G | 2.93e-05 ± 1.8e-05 s⁻¹ |
| U30A U46G C68G | 3.35e-05 ± 2.2e-05 s⁻¹ |
| U47G G59C C70G | 2.55e-05 ± 1.8e-05 s⁻¹ |
| C16A U54G C58U | 3.4e-05 ± 1.9e-05 s⁻¹ |
| A12U U30C | 0.0347 ± 0.018 s⁻¹ |
| C68A U69A | 2.6e-05 ± 1.9e-05 s⁻¹ |
| C58G C67U | 2.3e-05 ± 1.7e-05 s⁻¹ |
| A52G A53C U54A | 2e-05 ± 1.8e-05 s⁻¹ |
| C11U U65G C68G | 2e-05 ± 2e-05 s⁻¹ |
| A53U C58G C67U | 2.13e-05 ± 2e-05 s⁻¹ |
| C11A C50G U56G G59U G60A | 3.52e-05 ± 2.3e-05 s⁻¹ |
| C58U C67G C70U | 2.24e-05 ± 1.5e-05 s⁻¹ |

Taken from above:
self-cleavage kobs at 10000 uM GlcN6P with G7U G9U C11G U31A C50A G51A C71G reads 3.47e-05 ± 2.2e-05 s⁻¹
self-cleavage kobs at 10000 uM GlcN6P with U30A U46G C68G reads 3.35e-05 ± 2.2e-05 s⁻¹
self-cleavage kobs at 10000 uM GlcN6P with G44A C67G C68G reads 2.93e-05 ± 1.8e-05 s⁻¹
self-cleavage kobs at 10000 uM GlcN6P with C11U U65G C68G reads 2e-05 ± 2e-05 s⁻¹
self-cleavage kobs at 10000 uM GlcN6P with C16A G29C C58U reads 1.86e-05 ± 1.1e-05 s⁻¹
